# The supplement of paper PMC8728848
# The other results are listed elsewhere or left out.
# Experiments:
# Test in all cases: glycan array binding signal (z-score within array); higher = stronger binding
# Conditions in all cases: glycan notation: IUPAC condensed, linker removed
# [1] = target: Neu5Ac(a2-3)Gal(b1-4)GlcNAc(b1-3)Gal(b1-4)GlcNAc(b1-2)Man(a1-3)[Neu5Ac(a2-3)Gal(b1-4)GlcNAc(b1-3)Gal(b1-4)GlcNAc(b1-2)Man(a1-6)]Man(b1-4)GlcNAc(b1-4)GlcNAc
# In short: (§1)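 Glycan array binding is given as a within-array Z-score, which can be read as non-binding when negative. The arrays, 3228 of them, came from the Consortium for Functional Glycomics database and were retained only where the protein sequence was available. Z-scores were averaged across arrays of the same protein sequence at different concentrations or buffers and across linkers.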
# [2] = target: Neu5Ac(a2-3)Gal(b1-4)GlcNAc(b1-3)Gal(b1-4)GlcNAc(b1-3)Gal(b1-4)GlcNAc
# In short: as §1
# [3] = target: Neu5Ac(a2-3)Gal(b1-4)GlcNAc(b1-3)Gal(b1-4)GlcNAc(b1-3)Gal(b1-4)GlcNAc(b1-2)Man(a1-3)[Neu5Ac(a2-3)Gal(b1-4)GlcNAc(b1-3)Gal(b1-4)GlcNAc(b1-3)Gal(b1-4)GlcNAc(b1-2)Man(a1-6)]GalNAc
# In short: as §1
# [4] = target: Neu5Ac(a2-3)Gal(b1-4)GlcNAc(b1-3)Gal(b1-4)GlcNAc(b1-3)GalNAc
# In short: as §1
# [5] = target: Neu5Ac(a2-3)Gal(b1-4)GlcNAc(b1-3)Gal(b1-4)GlcNAc(b1-3)[Neu5Ac(a2-3)Gal(b1-4)GlcNAc(b1-3)Gal(b1-4)GlcNAc(b1-6)]GalNAc
# In short: as §1
# [6] = target: Neu5Ac(a2-3)Gal(b1-4)GlcNAc(b1-3)Gal(b1-4)GlcNAc(b1-6)[Gal(b1-3)]GalNAc
# In short: as §1
# [7] = target: Neu5Ac(a2-3)Gal(b1-4)GlcNAc(b1-3)Gal(b1-4)[Fuc(a1-3)]GlcNAc
# In short: as §1
# [8] = target: Neu5Ac(a2-3)Gal(b1-4)GlcNAc(b1-3)GalNAc
# In short: as §1
# [9] = target: Neu5Ac(a2-3)Gal(b1-4)GlcNAc(b1-3)[Neu5Ac(a2-3)Gal(b1-4)GlcNAc(b1-6)]GalNAc
# In short: as §1
# [10] = target: Neu5Ac(a2-3)Gal(b1-4)GlcNAc(b1-6)GalNAc
# In short: as §1
# [11] = target: Neu5Ac(a2-3)Gal(b1-4)GlcNAc(b1-6)[Gal(b1-3)]GalNAc
# In short: as §1
# [12] = target: Neu5Ac(a2-3)Gal(b1-4)GlcNAc(b1-6)[Neu5Ac(a2-3)Gal(b1-3)]GalNAc
# In short: as §1
# [13] = target: Neu5Ac(a2-3)Gal(b1-4)GlcNAc6S
# In short: as §1
# [14] = target: Neu5Ac(a2-3)Gal(b1-4)[Fuc(a1-3)]GlcNAc
# In short: as §1
# [15] = target: Neu5Ac(a2-3)Gal(b1-4)[Fuc(a1-3)]GlcNAc(b1-2)Man
# In short: as §1
# [16] = target: Neu5Ac(a2-3)Gal(b1-4)[Fuc(a1-3)]GlcNAc(b1-3)Gal
# In short: as §1
# [17] = target: Neu5Ac(a2-3)Gal(b1-4)[Fuc(a1-3)]GlcNAc(b1-3)Gal(b1-4)GlcNAc
# In short: as §1
# [18] = target: Neu5Ac(a2-3)Gal(b1-4)[Fuc(a1-3)]GlcNAc(b1-3)Gal(b1-4)[Fuc(a1-3)]GlcNAc(b1-3)Gal(b1-4)[Fuc(a1-3)]GlcNAc
# In short: as §1
# [19] = target: Neu5Ac(a2-3)Gal(b1-4)[Fuc(a1-3)]GlcNAc(b1-3)GalNAc
# In short: as §1
# [20] = target: Neu5Ac(a2-3)Gal(b1-4)[Fuc(a1-3)]GlcNAc(b1-6)[Gal(b1-3)]GalNAc
# In short: as §1
# [21] = target: Neu5Ac(a2-3)Gal(b1-4)[Fuc(a1-3)]GlcNAc(b1-6)[Neu5Ac(a2-3)Gal(b1-3)]GalNAc
# In short: as §1
# [22] = target: Neu5Ac(a2-3)Gal(b1-4)[Fuc(a1-3)]GlcNAc6S
# In short: as §1
# [23] = target: Neu5Ac(a2-3)Gal6S(b1-4)GlcNAc
# In short: as §1
# [24] = target: Neu5Ac(a2-3)Gal6S(b1-4)[Fuc(a1-3)]GlcNAc
# In short: as §1
# Neu5Ac(a2-3)GalNAc = target: Neu5Ac(a2-3)GalNAc
# In short: as §1
# [25] = target: Neu5Ac(a2-3)GalNAc(b1-4)GlcNAc
# In short: as §1
# [26] = target: Neu5Ac(a2-3)[GalNAc(b1-4)]Gal(b1-4)Glc
# In short: as §1
# [27] = target: Neu5Ac(a2-3)[GalNAc(b1-4)]Gal(b1-4)GlcNAc
# In short: as §1
# [28] = target: Neu5Ac(a2-3)[GalNAc(b1-4)]Gal(b1-4)GlcNAc(b1-3)GalNAc
# In short: as §1
# [29] = target: Neu5Ac(a2-3)[Neu5Ac(a2-6)]GalNAc
# In short: as §1
# Neu5Ac(a2-6)Gal = target: Neu5Ac(a2-6)Gal
# In short: as §1
# [30] = target: Neu5Ac(a2-6)Gal(b1-3)GlcNAc(b1-3)[Gal(b1-4)GlcNAc(b1-6)]Gal(b1-4)Glc
# In short: as §1
# Neu5Ac(a2-6)Gal(b1-4)Glc = target: Neu5Ac(a2-6)Gal(b1-4)Glc
# In short: as §1
# [31] = target: Neu5Ac(a2-6)Gal(b1-4)GlcNAc
# In short: as §1
# [32] = target: Neu5Ac(a2-6)Gal(b1-4)GlcNAc(b1-2)Man
# In short: as §1
# [33] = target: Neu5Ac(a2-6)Gal(b1-4)GlcNAc(b1-2)Man(a1-3)Man(b1-4)GlcNAc(b1-4)GlcNAc
# In short: as §1
# [34] = target: Neu5Ac(a2-6)Gal(b1-4)GlcNAc(b1-2)Man(a1-3)[Gal(b1-4)GlcNAc(b1-2)Man(a1-6)]Man(b1-4)GlcNAc(b1-4)GlcNAc
# In short: as §1
# [35] = target: Neu5Ac(a2-6)Gal(b1-4)GlcNAc(b1-2)Man(a1-3)[GlcNAc(b1-2)Man(a1-6)]Man(b1-4)GlcNAc(b1-4)GlcNAc
# In short: as §1
binder,measurement,setting,value
"AT3G09350(27) (Arabidopsis thaliana), Q84J81 (protein) MAKDGPNWDGLLKWSLSHADGTRPTRQLSEEDRKWFMEAMQSQTVDVVKRMKEITLVMQTPEQVLVEHGVTPEDIQDLLDELQEHVESIDMANDLHSIGGLVPLLSFLKNSHANIRAKAADVVSTIVQNNPRSQELVMETNALESLLSNFTSDTDIHARTQALGAISSLIRHNKPGVTAFKLANGYAGLRDALASDSVRFQRKALNLLQYLLQEDDSDRSIATGLGFPRVMMHLASSDDAEIREAALRGLLELSREKNDGSSSIDKSDEKLRQLLEERIKGITLMSQEDLETVKEERQLVDLLWSICYNEPSSLREKGLVVLPGEDALPPDVASKLFEPPLRASAANRNATEKKDEPMKLLGP",glycan array binding signal (z-score),[1],0.182
same,glycan array binding signal (z-score),[2],0.446
same,glycan array binding signal (z-score),[3],-0.504
same,glycan array binding signal (z-score),[4],-0.044
same,glycan array binding signal (z-score),[5],0.565
same,glycan array binding signal (z-score),[6],0.129
same,glycan array binding signal (z-score),[7],-0.305
same,glycan array binding signal (z-score),[8],-0.33
same,glycan array binding signal (z-score),[9],0.337
same,glycan array binding signal (z-score),[10],0.199
same,glycan array binding signal (z-score),[11],-0.389
same,glycan array binding signal (z-score),[12],0.266
same,glycan array binding signal (z-score),[13],-0.396
same,glycan array binding signal (z-score),[14],-0.076
same,glycan array binding signal (z-score),[15],-0.529
same,glycan array binding signal (z-score),[16],-1.03
same,glycan array binding signal (z-score),[17],1.26
same,glycan array binding signal (z-score),[18],-0.102
same,glycan array binding signal (z-score),[19],0.686
same,glycan array binding signal (z-score),[20],0.052
same,glycan array binding signal (z-score),[21],0.415
same,glycan array binding signal (z-score),[22],-0.787
same,glycan array binding signal (z-score),[23],-0.068
same,glycan array binding signal (z-score),[24],-0.42
same,glycan array binding signal (z-score),Neu5Ac(a2-3)GalNAc,0.458
same,glycan array binding signal (z-score),[25],-0.608
same,glycan array binding signal (z-score),[26],-0.788
same,glycan array binding signal (z-score),[27],-0.121
same,glycan array binding signal (z-score),[28],0.312
same,glycan array binding signal (z-score),[29],-0.855
same,glycan array binding signal (z-score),Neu5Ac(a2-6)Gal,-0.683
same,glycan array binding signal (z-score),[30],0.54
same,glycan array binding signal (z-score),Neu5Ac(a2-6)Gal(b1-4)Glc,-0.395
same,glycan array binding signal (z-score),[31],0.001
same,glycan array binding signal (z-score),[32],0.62
same,glycan array binding signal (z-score),[33],-0.684
same,glycan array binding signal (z-score),[34],-0.016
same,glycan array binding signal (z-score),[35],0.05

# Reformatted with tabs: entries from further up.
binder	measurement	setting	value
AT3G09350(27) (Arabidopsis thaliana), Q84J81 (protein) MAKDGPNWDGLLKWSLSHADGTRPTRQLSEEDRKWFMEAMQSQTVDVVKRMKEITLVMQTPEQVLVEHGVTPEDIQDLLDELQEHVESIDMANDLHSIGGLVPLLSFLKNSHANIRAKAADVVSTIVQNNPRSQELVMETNALESLLSNFTSDTDIHARTQALGAISSLIRHNKPGVTAFKLANGYAGLRDALASDSVRFQRKALNLLQYLLQEDDSDRSIATGLGFPRVMMHLASSDDAEIREAALRGLLELSREKNDGSSSIDKSDEKLRQLLEERIKGITLMSQEDLETVKEERQLVDLLWSICYNEPSSLREKGLVVLPGEDALPPDVASKLFEPPLRASAANRNATEKKDEPMKLLGP	glycan array binding signal (z-score)	Neu5Ac(a2-6)Gal(b1-4)Glc	-0.395
same	glycan array binding signal (z-score)	[31]	0.001
